Measured values as given in the M2OR odorant receptor database.
Numbering of substitutions follows the chain as printed. Only a part is listed here, and it is no random draw. The calls were merged from several studies; some rest on single wells. The list shows a part of the results. Some of the results follow.

Chains of the proteins cited; added tags and fusions are not shown. Chains listed by the source or under a name are the forms on record and can include a tag or linker.
OR5H1, as listed by the source: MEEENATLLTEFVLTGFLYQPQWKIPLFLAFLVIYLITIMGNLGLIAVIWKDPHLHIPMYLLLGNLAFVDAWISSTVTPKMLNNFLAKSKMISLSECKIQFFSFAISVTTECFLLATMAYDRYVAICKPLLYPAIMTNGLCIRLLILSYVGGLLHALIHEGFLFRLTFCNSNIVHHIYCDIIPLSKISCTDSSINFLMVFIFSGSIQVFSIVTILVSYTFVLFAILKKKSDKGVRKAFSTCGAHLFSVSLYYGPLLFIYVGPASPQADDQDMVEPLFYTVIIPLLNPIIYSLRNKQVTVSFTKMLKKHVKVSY

Tests used:
Settings in all cases: stereoisomer not certain
OR5AN1 (Homo sapiens) = molecular target: T1, OR5AN1 (Homo sapiens) (UniProt Q8NGI8)
T1 sequence (whole entry): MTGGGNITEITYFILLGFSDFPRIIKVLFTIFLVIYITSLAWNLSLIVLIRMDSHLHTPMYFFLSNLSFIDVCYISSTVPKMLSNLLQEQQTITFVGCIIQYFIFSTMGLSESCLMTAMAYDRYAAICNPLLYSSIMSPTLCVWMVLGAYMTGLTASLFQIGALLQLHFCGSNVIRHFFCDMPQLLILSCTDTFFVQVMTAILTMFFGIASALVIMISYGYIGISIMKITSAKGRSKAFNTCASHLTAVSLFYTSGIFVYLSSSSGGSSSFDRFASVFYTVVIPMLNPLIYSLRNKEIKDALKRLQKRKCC
Method in brief: (§1)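 Whether a receptor–molecule pair is responsive (active) rests on the original authors' judgment that its measured signal was statistically different from baseline. Pairs without that judgment are non-responsive (inactive). Sources used varied assay methods, commonly transient luciferase assays in mammalian cell lines.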

OR5AR1 (Homo sapiens) = molecular target: T2, OR5AR1 (Homo sapiens) (UniProt Q8NGP9)
T2 sequence (whole entry): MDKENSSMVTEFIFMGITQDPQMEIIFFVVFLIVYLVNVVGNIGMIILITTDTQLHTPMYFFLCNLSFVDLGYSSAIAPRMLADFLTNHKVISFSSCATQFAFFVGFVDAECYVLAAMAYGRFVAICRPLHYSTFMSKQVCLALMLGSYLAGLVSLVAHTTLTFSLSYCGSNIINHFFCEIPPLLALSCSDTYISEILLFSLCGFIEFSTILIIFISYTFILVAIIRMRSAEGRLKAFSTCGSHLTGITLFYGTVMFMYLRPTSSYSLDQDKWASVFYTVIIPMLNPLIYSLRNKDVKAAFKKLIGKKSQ
Method in brief: as §1

OR5AS1 (Homo sapiens) = molecular target: T3, OR5AS1 (Homo sapiens) (UniProt Q8N127)
T3 sequence (whole entry): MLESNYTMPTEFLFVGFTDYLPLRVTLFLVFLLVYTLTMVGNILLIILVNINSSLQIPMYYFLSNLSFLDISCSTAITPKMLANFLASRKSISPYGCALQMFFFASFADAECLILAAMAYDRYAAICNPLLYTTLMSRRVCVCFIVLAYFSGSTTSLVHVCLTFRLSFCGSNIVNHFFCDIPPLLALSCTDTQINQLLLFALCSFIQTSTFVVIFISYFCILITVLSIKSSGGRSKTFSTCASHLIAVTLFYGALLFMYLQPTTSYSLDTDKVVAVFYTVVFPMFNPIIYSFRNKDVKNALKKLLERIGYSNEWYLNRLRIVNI
Method in brief: as §1

OR5AU1 (Homo sapiens) = molecular target: T4, OR5AU1 (Homo sapiens) (UniProt Q8NGC0)
T4 sequence (whole entry): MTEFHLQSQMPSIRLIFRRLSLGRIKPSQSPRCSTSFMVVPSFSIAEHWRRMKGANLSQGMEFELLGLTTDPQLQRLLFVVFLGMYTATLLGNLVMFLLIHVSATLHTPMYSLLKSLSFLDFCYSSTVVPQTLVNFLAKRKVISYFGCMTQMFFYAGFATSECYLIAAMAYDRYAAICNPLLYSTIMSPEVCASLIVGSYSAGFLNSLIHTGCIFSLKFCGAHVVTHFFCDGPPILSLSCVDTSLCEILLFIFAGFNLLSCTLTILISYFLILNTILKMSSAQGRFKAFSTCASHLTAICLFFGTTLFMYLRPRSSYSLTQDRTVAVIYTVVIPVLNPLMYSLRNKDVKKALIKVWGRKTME
Method in brief: as §1

OR5B17 (Homo sapiens) = molecular target: T5, OR5B17 (Homo sapiens) (UniProt Q8NGF7)
T5 sequence (whole entry): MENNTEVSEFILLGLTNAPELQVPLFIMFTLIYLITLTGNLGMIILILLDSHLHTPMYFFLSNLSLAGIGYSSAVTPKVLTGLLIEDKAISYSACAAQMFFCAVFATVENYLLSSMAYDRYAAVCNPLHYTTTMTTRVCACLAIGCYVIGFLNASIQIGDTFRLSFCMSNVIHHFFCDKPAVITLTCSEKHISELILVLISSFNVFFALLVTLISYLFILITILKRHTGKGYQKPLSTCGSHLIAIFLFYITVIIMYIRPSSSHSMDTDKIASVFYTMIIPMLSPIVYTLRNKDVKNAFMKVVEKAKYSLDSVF
Method in brief: as §1

OR5B2 = test system: T6, OR5B2
T6 sequence (whole entry): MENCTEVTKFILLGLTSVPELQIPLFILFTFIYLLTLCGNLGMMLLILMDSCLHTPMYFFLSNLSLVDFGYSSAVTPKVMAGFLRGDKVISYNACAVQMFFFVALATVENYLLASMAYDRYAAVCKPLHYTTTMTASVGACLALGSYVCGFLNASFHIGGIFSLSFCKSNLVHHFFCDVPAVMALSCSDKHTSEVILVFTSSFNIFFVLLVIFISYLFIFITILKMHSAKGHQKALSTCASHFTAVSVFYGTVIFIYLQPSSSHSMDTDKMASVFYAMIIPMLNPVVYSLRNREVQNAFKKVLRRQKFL
Method in brief: as §1

OR5B3 (Homo sapiens) = molecular target: T7, OR5B3 (Homo sapiens) (UniProt Q8NH48)
T7 sequence (whole entry): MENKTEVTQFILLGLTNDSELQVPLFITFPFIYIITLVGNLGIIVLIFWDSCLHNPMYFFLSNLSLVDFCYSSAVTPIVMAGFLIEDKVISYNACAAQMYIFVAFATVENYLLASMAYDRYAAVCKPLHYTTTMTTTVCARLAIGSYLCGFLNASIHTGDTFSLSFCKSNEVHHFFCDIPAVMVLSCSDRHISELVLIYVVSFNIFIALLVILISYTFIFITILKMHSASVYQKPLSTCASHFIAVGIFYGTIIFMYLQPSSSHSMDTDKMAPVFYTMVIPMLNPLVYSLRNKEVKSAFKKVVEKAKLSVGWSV
Method in brief: as §1

OR5BC = test system: T8, OR5BC
T8 sequence (whole entry): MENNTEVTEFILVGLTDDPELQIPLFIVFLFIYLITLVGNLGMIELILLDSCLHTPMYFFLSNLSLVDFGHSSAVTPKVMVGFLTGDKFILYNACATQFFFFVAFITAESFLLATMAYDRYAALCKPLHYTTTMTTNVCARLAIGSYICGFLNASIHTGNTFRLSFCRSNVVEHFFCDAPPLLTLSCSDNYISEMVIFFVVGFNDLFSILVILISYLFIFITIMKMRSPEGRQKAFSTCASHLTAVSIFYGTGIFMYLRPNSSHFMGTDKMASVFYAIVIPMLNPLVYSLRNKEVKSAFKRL
Method in brief: as §1

OR5BL = test system: T9, OR5BL
T9 sequence (whole entry): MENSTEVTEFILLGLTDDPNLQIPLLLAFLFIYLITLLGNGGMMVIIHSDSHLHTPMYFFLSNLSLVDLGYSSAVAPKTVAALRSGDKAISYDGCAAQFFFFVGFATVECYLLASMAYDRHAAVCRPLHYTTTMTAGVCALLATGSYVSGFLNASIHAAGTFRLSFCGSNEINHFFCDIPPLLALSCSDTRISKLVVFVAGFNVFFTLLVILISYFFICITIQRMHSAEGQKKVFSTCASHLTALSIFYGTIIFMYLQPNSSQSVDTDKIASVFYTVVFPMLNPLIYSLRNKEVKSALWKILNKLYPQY
Method in brief: as §1

OR5C1 (Homo sapiens) = molecular target: T10, OR5C1 (Homo sapiens) (UniProt Q8NGR4)
T10 sequence (whole entry): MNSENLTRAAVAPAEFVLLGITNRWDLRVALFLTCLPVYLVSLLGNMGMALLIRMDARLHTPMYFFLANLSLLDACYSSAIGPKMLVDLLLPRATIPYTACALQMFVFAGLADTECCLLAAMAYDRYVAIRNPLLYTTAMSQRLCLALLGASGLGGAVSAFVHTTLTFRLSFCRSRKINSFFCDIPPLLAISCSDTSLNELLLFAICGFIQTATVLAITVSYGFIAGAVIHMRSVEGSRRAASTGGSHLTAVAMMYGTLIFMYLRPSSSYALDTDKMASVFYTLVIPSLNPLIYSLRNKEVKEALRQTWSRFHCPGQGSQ
Method in brief: as §1

OR5DD = test system: T11, OR5DD
T11 sequence (whole entry): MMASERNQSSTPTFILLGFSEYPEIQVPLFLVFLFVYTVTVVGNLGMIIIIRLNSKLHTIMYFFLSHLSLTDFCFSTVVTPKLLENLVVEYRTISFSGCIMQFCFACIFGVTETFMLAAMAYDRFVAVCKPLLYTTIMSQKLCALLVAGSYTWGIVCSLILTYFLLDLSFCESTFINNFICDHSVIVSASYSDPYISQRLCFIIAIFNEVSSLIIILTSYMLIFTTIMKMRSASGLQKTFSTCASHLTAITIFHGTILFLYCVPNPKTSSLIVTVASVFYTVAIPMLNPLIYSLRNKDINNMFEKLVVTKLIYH
Method in brief: as §1

OR5DE = test system: T12, OR5DE
T12 sequence (whole entry): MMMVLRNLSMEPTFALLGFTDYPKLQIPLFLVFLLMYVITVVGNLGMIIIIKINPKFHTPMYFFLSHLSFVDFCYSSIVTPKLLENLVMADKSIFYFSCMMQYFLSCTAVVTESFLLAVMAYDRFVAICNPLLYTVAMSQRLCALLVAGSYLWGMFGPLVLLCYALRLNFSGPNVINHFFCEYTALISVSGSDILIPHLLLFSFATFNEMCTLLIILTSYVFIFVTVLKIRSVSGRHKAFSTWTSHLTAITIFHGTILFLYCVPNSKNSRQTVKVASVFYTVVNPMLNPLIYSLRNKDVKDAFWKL
Method in brief: as §1

OR5DG = test system: T13, OR5DG
T13 sequence (whole entry): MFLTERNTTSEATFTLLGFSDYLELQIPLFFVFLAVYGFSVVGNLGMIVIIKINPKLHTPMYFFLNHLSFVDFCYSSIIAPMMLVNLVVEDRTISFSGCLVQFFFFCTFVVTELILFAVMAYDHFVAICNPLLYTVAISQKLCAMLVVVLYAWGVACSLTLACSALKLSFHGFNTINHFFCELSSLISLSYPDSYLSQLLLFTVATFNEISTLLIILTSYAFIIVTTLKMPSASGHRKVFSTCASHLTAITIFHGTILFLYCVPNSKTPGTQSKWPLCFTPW
Method in brief: as §1

OR5DI = test system: T14, OR5DI
T14 sequence (whole entry): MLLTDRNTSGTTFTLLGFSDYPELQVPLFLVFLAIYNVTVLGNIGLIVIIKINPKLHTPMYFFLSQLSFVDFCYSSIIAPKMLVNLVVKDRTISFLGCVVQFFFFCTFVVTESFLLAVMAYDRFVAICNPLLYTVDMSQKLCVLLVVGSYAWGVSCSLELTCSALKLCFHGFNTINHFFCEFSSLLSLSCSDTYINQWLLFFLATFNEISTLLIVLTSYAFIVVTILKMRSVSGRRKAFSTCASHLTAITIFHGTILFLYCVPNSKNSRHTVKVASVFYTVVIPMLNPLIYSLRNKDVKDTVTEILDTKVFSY
Method in brief: as §1

OR5F1 = test system: T15, OR5F1
T15 sequence (whole entry): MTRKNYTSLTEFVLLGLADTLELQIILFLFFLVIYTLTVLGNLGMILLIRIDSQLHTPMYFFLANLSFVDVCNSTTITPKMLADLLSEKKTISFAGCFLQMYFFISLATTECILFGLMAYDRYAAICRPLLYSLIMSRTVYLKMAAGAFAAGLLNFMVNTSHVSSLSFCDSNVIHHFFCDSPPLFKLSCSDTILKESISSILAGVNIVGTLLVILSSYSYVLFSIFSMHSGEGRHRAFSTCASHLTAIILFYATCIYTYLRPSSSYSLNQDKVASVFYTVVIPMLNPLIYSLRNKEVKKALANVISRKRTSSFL
Method in brief: as §1

OR5H1 (Homo sapiens) = molecular target: T16, OR5H1 (Homo sapiens) (UniProt A6NKK0)
T16 sequence (whole entry): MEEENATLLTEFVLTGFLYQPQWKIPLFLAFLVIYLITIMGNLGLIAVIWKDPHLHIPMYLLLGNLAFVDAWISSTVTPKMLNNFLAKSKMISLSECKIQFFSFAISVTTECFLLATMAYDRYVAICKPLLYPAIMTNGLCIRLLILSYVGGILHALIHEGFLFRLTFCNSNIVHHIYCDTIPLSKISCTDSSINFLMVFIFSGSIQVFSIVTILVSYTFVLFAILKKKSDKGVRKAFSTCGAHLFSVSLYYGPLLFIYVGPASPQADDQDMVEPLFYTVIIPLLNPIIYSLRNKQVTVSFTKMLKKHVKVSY
Method in brief: as §1

OR5H1 = test system: T17, OR5H1
T17 sequence (whole entry): T16 sequence (whole entry) with I153L, T181I
Method in brief: as §1

OR5H2 [1] = test system: T18, OR5H2
T18 sequence (whole entry): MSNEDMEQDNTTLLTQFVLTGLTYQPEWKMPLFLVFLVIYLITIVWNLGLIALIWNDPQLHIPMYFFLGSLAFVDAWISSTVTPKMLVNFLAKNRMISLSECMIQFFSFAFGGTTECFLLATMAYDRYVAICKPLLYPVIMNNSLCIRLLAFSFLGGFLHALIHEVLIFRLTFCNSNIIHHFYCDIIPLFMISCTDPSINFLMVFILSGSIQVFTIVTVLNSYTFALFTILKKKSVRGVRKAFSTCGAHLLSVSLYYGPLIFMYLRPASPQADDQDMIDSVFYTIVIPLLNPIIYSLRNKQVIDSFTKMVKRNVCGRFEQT
Method in brief: as §1

OR5H2 [2] = test system: T19, OR5H2; remark: listed apart in the source
T19 sequence (whole entry): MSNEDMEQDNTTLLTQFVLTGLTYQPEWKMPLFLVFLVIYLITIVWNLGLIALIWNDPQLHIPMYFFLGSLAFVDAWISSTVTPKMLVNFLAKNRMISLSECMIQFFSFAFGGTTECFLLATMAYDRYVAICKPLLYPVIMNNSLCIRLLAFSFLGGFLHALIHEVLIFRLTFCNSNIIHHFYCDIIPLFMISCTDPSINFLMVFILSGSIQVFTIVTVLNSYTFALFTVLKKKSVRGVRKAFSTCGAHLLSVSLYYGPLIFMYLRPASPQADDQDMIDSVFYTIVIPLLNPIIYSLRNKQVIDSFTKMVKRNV
Method in brief: as §1

OR5H6 = test system: T20, OR5H6
T20 sequence (whole entry): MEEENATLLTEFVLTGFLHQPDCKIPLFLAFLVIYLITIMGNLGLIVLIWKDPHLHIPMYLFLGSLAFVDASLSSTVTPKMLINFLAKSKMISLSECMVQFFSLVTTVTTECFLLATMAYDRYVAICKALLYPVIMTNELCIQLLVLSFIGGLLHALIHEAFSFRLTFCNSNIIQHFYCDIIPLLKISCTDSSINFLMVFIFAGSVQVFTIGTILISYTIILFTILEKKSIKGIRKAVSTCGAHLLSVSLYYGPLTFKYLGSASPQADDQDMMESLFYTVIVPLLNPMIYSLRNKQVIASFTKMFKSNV
Method in brief: as §1

Measured: odorant receptor agonist call;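 also: active if original authors judged signal statistically different from baseline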

CCC(C)=O
inactive: all assays above
